Laboratory results taken from the supplement of paper PMC4604168 (melanoma cell lines).
The list shows a part of the results. Many values rest on one well or one pass, so single values are uncertain.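 The apoptosis fraction was the count of cleaved-PARP antibody-stained nuclei relative to all DNA-stained nuclei, imaged in 1,536-well plates. Screening doses were set so most cells survived, and baseline and induced cleaved-PARP levels vary greatly across cell lines.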

Key:
Assay in all cases: cleaved PARP positive nuclei fraction relative to DMSO control; melanoma cells; higher = more apoptosis
Conditions in all cases: library dose: low library concentration; 72 h
CBRC034 = system: CBRC034 (line from a melanoma biopsy)
COLO792 = system: COLO792
COLO800 = system: COLO800
COLO829 = system: COLO829
G361 = system: G361
IPC-298 = system: IPC-298
IST-MEL1 = system: IST-MEL1
LB2518-MEL = system: LB2518-MEL
LOXIMVI = system: LOXIMVI
MZ2-MEL = system: MZ2-MEL
MeWo = system: MeWo
RPMI7951 = system: RPMI7951
RVH-421 = system: RVH-421
SkMel28 = system: SkMel28
SkMel30 = system: SkMel30
SkMel5 = system: SkMel5
UACC257 = system: UACC257
UACC62 = system: UACC62

Row | Compound | cleaved PARP positive nuclei fraction (CBRC034) | cleaved PARP positive nuclei fraction (COLO792) | cleaved PARP positive nuclei fraction (COLO800) | cleaved PARP positive nuclei fraction (COLO829) | cleaved PARP positive nuclei fraction (G361) | cleaved PARP positive nuclei fraction (IPC-298) | cleaved PARP positive nuclei fraction (IST-MEL1) | cleaved PARP positive nuclei fraction (LB2518-MEL) | cleaved PARP positive nuclei fraction (LOXIMVI) | cleaved PARP positive nuclei fraction (MZ2-MEL) | cleaved PARP positive nuclei fraction (MeWo) | cleaved PARP positive nuclei fraction (RPMI7951) | cleaved PARP positive nuclei fraction (RVH-421) | cleaved PARP positive nuclei fraction (SkMel28) | cleaved PARP positive nuclei fraction (SkMel30) | cleaved PARP positive nuclei fraction (SkMel5) | cleaved PARP positive nuclei fraction (UACC257) | cleaved PARP positive nuclei fraction (UACC62)
1 | Cn1nnc2c(C(N)=O)ncn2c1=O [temozolomide] + COc1cc2ncnc(Nc3ccc(Oc4ccccc4)cc3)c2cc1OC [SrcI1] (first compound 2 µM, partner dose 2 µM) | 86.2% | 50.1% | 162% | 73% | 138% | 93.3% | 64.8% | 150% | 88.1% | 89.5% | 99.7% | 35.7% | 36% | 100% | 30% | 75.6% | 53.2% | 45.6%
2 | Cc1cc(N2CCOCC2)cc2[nH]c(-c3c(NC[C@@H](O)c4cccc(Cl)c4)cc[nH]c3=O)nc12 + Cn1cc(/C=C2\C(=O)Nc3cccnc32)c2ccccc21 [GW441756] (first compound 0.2 µM, partner dose 0.4 µM) | 94.2% | 154% | 148% | 32.8% | 146% | 86.8% | 75.6% | 109% | 27.4% | 87% | 110% | 66.6% | 97.1% | 163% | 131% | 94.9% | 60.2% | 39.6%
3 | Cc1nc(Nc2ncc(C(=O)Nc3c(C)cccc3Cl)s2)cc(N2CCN(CCO)CC2)n1 [dasatanib] + c1cc(-c2cnn3cc(-c4ccc(OCCN5CCCCC5)cc4)cnc23)ccn1 [Dorsomorphin] (first compound 0.004 µM, partner dose 0.4 µM) | 133% | 206% | 79.3% | 176% | 40.5% | 182% | 212% | 119% | 50.7% | 231% | 106% | 269% | 142% | 195% | 69% | 65.2% | 58.8% | 167%
4 | C#Cc1cccc(Nc2ncnc3cc(OCCOC)c(OCCOC)cc23)c1 [erlotinib] + COc1ccc2c(c1)CCC1C2CCC2(C)C(NCCCCCCN3C(=O)C=CC3=O)CCC12 [U73122] (first compound 0.8 µM, partner dose 0.4 µM) | 135% | 108% | 78.4% | 94.3% | 65.3% | 207% | 36.9% | 236% | 72.7% | 41.1% | 82.6% | 89.2% | 140% | 136% | 16.3% | 26.7% | 108% | 95%
5 | CC1(C)NC(=O)N(c2ccc([N+](=O)[O-])c(C(F)(F)F)c2)C1=O [nilutamide] + COC(=O)c1sccc1S(=O)(=O)Nc1ccc(Nc2ccccc2)cc1OC [GSK0660] (first compound 1 µM, partner dose 1 µM) | 42% | 213% | 98.4% | 97.6% | 152% | 142% | 40.8% | 41.5% | 59.3% | 69.3% | 289% | 64.7% | 37% | 146% | 211% | 54% | 282% | 164%
6 | CC1(C)NC(=O)N(c2ccc([N+](=O)[O-])c(C(F)(F)F)c2)C1=O [nilutamide] + Cn1cc(/C=C2\C(=O)Nc3cccnc32)c2ccccc21 [GW441756] (first compound 1 µM, partner dose 0.4 µM) | 61.2% | 69% | 66.6% | 33.9% | 94.1% | 40.1% | 594% | 94.5% | 59.4% | 66.9% | 140% | 87% | 57.8% | 60.2% | 53% | 32.8% | 180% | 80.7%
7 | C[C@]1(c2nc3c(C(N)=O)cccc3[nH]2)CCCN1 [Veliparib] + Oc1nc(-c2ccc(C(F)(F)F)cc2)nc2c1CSCC2 [XAV939] (first compound 1.4 µM, partner dose 2 µM) | 46.6% | 103% | 128% | 43.3% | 120% | 43.3% | 97.1% | 96% | 42.4% | 102% | 142% | 118% | 81.1% | 151% | 160% | 94.8% | 140% | 99.8%
8 | Nc1cccc2c1CN(C1CCC(=O)NC1=O)C2=O (centres undefined) [lenalidomide] + CCc1ccc(CCOc2ccc(CC3SC(=O)NC3=O)cc2)nc1 [pioglitazone] (first compound 1 µM, partner dose 2 µM) | 45.4% | 146% | 120% | 188% | 37.8% | 52.9% | 42.5% | 44.8% | 36.4% | 207% | 107% | 77.2% | 41.4% | 107% | 75.8% | 70.2% | 55.4% | 79.1%
9 | COCC[n+]1c2c(n(Cc3cnccn3)c1C)C(=O)c1ccccc1C2=O + O=C(Nc1ccccc1)c1cc([N+](=O)[O-])ccc1Cl [GW9662] (first compound 0.0004 µM, partner dose 2 µM) | 107% | 68.2% | 141% | 117% | 86.9% | 82.9% | 102% | 85% | 54.9% | 139% | 55.9% | 51.7% | 164% | 210% | 33.9% | 158% | 46.6% | 39.1%
10 | CO[C@@H]1[C@H](N(C)C(=O)c2ccccc2)C[C@H]2O[C@]1(C)n1c3ccccc3c3c4c(c5c6ccccc6n2c5c31)C(=O)NC4 [Midostaurin] + CCCCCCCCCCCC1=C(O)C(=O)C=C(O)C1=O [Embelin] (first compound 0.08 µM, partner dose 1.2 µM) | 113% | 127% | 93.9% | 62.3% | 149% | 39.4% | 200% | 77.2% | 73.8% | 28.3% | 49.1% | 142% | 154% | 122% | 99% | 74.2% | 43.9% | 82.9%
11 | C#Cc1cccc(Nc2ncnc3cc(OCCOC)c(OCCOC)cc23)c1 [erlotinib] + O=C1NC(=O)/C(=C/c2ccc(-c3ccc(F)cc3O)o2)S1 [AS252424] (first compound 0.8 µM, partner dose 1 µM) | 61.5% | 111% | 148% | 72.4% | 174% | 133% | 101% | 83.1% | 35.6% | 49.3% | 135% | 75.8% | 109% | 93.6% | 111% | 35.1% | 106% | 172%
12 | C[C@@H]1CCN(C(=O)CC#N)C[C@@H]1N(C)c1ncnc2[nH]ccc12 + COc1ccc(-c2ccc3c(N4CCOCC4)nc(N4C[C@@H](C)O[C@@H](C)C4)nc3n2)cc1CO [KU0063794] (first compound 1 µM, partner dose 0.02 µM) | 28.9% | 80.4% | 245% | 151% | 32.3% | 123% | 42.7% | 53.6% | 41% | 96.7% | 61.1% | 90% | 62.8% | 161% | 85.6% | 29.9% | 206% | 123%
13 | O=C(CCCCCCC(=O)Nc1ccccc1)NO [vorinostat] + c1cc(-c2cnn3cc(-c4ccc(OCCN5CCCCC5)cc4)cnc23)ccn1 [Dorsomorphin] (first compound 0.08 µM, partner dose 0.4 µM) | 38.1% | 65.1% | 160% | 83.4% | 292% | 19.5% | 85.5% | 41.2% | 54.9% | 120% | 57.6% | 93.8% | 69.7% | 120% | 73.8% | 104% | 140% | 82.7%
14 | Cc1ccc(NC(=O)c2cccc(N(C)C)c2)cc1NC(=O)c1ccc(O)cc1 + CC(C)CCN1c2nc(Nc3cc(F)c(O)c(F)c3)ncc2N(C)C(=O)C1C [BID1870] (first compound 2 µM, partner dose 0.2 µM) | 94.1% | 57.4% | 124% | 41.3% | 112% | 31.1% | 135% | 82.5% | 154% | 152% | 363% | 86.8% | 60.7% | 196% | 740% | 82.6% | 103% | 48.2%
15 | CC(C)(C)c1cnc(CSc2cnc(NC(=O)C3CCNCC3)s2)o1 + c1cc(-c2cnn3cc(-c4ccc(OCCN5CCCCC5)cc4)cnc23)ccn1 [Dorsomorphin] (first compound 0.01 µM, partner dose 0.4 µM) | 40.2% | 96.5% | 94.7% | 140% | 103% | 54.7% | 98.2% | 86.2% | 92.8% | 118% | 50.8% | 63.5% | 99.5% | 129% | 22.4% | 33.8% | 332% | 94.8%
16 | Nc1cccc2c1CN(C1CCC(=O)NC1=O)C2=O (centres undefined) [lenalidomide] + Cn1cc(/C=C2\C(=O)Nc3cccnc32)c2ccccc21 [GW441756] (first compound 1 µM, partner dose 0.4 µM) | 45.3% | 147% | 111% | 115% | 125% | 157% | 90.9% | 154% | 145% | 107% | 112% | 97.3% | 61.2% | 141% | 234% | 96.3% | 156% | 41.6%
17 | O=C(CCCCCCC(=O)Nc1ccccc1)NO [vorinostat] + COC(=O)c1sccc1S(=O)(=O)Nc1ccc(Nc2ccccc2)cc1OC [GSK0660] (first compound 0.08 µM, partner dose 1 µM) | 84% | 91.5% | 130% | 133% | 53.6% | 84.7% | 88.7% | 164% | 58.5% | 59.5% | 201% | 91.3% | 72.9% | 189% | 25.5% | 80.9% | 32.8% | 88.2%
18 | Cc1nc(Nc2ncc(C(=O)Nc3c(C)cccc3Cl)s2)cc(N2CCN(CCO)CC2)n1 [dasatanib] + COc1cc2ncnc(Nc3ccc(Oc4ccccc4)cc3)c2cc1OC [SrcI1] (first compound 0.004 µM, partner dose 2 µM) | 94.6% | 259% | 50% | 95.3% | 68.3% | 42.8% | 70.3% | 79.1% | 121% | 166% | 116% | 134% | 78.5% | 452% | 33.2% | 134% | 197% | 158%

Quoted from above, nos. 17–18
Row | Compound | cleaved PARP positive nuclei fraction (CBRC034) | cleaved PARP positive nuclei fraction (COLO792) | cleaved PARP positive nuclei fraction (COLO800) | cleaved PARP positive nuclei fraction (COLO829) | cleaved PARP positive nuclei fraction (G361) | cleaved PARP positive nuclei fraction (IPC-298) | cleaved PARP positive nuclei fraction (IST-MEL1) | cleaved PARP positive nuclei fraction (LB2518-MEL) | cleaved PARP positive nuclei fraction (LOXIMVI) | cleaved PARP positive nuclei fraction (MZ2-MEL) | cleaved PARP positive nuclei fraction (MeWo) | cleaved PARP positive nuclei fraction (RPMI7951) | cleaved PARP positive nuclei fraction (RVH-421) | cleaved PARP positive nuclei fraction (SkMel28) | cleaved PARP positive nuclei fraction (SkMel30) | cleaved PARP positive nuclei fraction (SkMel5) | cleaved PARP positive nuclei fraction (UACC257) | cleaved PARP positive nuclei fraction (UACC62)
17 | O=C(CCCCCCC(=O)Nc1ccccc1)NO [vorinostat] + COC(=O)c1sccc1S(=O)(=O)Nc1ccc(Nc2ccccc2)cc1OC [GSK0660] (first compound 0.08 µM, partner dose 1 µM) | 84% | 91.5% | 130% | 133% | 53.6% | 84.7% | 88.7% | 164% | 58.5% | 59.5% | 201% | 91.3% | 72.9% | 189% | 25.5% | 80.9% | 32.8% | 88.2%
18 | Cc1nc(Nc2ncc(C(=O)Nc3c(C)cccc3Cl)s2)cc(N2CCN(CCO)CC2)n1 [dasatanib] + COc1cc2ncnc(Nc3ccc(Oc4ccccc4)cc3)c2cc1OC [SrcI1] (first compound 0.004 µM, partner dose 2 µM) | 94.6% | 259% | 50% | 95.3% | 68.3% | 42.8% | 70.3% | 79.1% | 121% | 166% | 116% | 134% | 78.5% | 452% | 33.2% | 134% | 197% | 158%
